Data reported in the supplement of paper PMC10849652.
This is one part of the list.

Chains of the proteins cited; added tags and fusions are not shown. Lines headed by an entry give the natural chain unless they say otherwise; changes in a name come on top.
UniProt Q96EY8: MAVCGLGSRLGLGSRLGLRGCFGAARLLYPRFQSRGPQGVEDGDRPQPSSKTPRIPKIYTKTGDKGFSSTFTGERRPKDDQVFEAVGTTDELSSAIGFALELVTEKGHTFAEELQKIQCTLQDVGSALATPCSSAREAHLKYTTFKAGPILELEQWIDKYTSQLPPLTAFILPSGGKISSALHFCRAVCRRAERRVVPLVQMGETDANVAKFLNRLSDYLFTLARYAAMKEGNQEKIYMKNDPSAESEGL
UniProt O60291: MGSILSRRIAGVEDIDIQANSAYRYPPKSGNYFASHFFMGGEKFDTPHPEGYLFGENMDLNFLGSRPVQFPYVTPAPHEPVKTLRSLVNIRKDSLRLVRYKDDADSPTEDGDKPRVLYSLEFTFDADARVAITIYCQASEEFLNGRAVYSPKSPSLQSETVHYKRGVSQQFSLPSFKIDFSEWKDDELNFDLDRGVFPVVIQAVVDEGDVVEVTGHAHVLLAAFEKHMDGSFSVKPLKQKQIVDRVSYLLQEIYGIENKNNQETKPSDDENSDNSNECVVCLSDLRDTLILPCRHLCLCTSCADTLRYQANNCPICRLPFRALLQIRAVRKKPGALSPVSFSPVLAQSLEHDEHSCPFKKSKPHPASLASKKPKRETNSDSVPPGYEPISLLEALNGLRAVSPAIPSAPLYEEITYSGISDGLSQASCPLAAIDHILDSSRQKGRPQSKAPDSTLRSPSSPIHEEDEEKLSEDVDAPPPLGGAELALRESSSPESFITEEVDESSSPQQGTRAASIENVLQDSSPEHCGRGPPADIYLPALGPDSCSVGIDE
UniProt Q9NYP9: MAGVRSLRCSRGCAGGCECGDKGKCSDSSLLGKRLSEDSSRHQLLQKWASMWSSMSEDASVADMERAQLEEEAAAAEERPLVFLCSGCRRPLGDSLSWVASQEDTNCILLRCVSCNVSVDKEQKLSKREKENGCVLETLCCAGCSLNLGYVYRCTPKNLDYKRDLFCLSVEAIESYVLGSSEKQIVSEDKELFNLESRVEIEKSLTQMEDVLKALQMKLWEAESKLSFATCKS
UniProt Q9NQG6: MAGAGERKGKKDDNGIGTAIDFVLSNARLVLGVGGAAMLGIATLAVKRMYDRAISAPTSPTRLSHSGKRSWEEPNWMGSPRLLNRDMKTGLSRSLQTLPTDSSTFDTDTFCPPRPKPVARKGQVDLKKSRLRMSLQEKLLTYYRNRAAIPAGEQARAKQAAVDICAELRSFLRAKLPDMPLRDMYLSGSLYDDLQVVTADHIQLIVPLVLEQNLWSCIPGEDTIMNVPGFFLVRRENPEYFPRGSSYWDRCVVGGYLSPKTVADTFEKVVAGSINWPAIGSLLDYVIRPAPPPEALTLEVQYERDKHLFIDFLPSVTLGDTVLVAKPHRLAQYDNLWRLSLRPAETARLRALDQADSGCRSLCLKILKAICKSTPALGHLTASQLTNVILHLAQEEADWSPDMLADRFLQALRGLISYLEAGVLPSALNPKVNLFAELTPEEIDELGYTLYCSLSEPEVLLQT
UniProt Q7Z3K6: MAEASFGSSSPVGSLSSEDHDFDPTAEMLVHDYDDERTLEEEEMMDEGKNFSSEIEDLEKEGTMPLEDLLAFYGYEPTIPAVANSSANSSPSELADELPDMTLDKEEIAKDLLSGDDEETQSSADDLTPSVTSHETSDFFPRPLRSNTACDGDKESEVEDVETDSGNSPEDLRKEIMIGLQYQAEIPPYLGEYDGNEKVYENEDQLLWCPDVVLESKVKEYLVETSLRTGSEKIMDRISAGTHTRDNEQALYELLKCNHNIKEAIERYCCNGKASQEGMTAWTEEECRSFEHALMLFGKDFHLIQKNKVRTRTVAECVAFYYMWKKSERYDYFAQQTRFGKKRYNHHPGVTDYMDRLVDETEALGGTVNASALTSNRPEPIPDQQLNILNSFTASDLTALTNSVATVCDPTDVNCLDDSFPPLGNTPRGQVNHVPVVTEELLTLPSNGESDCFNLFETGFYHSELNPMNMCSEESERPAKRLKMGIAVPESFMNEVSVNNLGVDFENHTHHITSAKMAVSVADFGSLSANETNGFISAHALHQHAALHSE
UniProt Q6IN84: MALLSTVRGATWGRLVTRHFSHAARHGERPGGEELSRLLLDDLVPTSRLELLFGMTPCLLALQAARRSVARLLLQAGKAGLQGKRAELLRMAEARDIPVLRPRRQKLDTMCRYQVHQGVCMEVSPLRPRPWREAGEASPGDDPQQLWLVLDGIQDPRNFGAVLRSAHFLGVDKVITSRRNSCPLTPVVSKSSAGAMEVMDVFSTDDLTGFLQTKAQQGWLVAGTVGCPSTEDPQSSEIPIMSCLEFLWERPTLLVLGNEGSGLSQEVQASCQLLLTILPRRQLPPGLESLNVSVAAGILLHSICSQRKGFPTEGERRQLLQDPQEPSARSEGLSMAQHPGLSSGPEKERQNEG
UniProt Q9BRT3: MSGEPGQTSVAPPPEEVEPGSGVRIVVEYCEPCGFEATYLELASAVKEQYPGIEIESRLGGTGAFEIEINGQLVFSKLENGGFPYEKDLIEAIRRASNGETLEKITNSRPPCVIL
UniProt Q8TDZ2: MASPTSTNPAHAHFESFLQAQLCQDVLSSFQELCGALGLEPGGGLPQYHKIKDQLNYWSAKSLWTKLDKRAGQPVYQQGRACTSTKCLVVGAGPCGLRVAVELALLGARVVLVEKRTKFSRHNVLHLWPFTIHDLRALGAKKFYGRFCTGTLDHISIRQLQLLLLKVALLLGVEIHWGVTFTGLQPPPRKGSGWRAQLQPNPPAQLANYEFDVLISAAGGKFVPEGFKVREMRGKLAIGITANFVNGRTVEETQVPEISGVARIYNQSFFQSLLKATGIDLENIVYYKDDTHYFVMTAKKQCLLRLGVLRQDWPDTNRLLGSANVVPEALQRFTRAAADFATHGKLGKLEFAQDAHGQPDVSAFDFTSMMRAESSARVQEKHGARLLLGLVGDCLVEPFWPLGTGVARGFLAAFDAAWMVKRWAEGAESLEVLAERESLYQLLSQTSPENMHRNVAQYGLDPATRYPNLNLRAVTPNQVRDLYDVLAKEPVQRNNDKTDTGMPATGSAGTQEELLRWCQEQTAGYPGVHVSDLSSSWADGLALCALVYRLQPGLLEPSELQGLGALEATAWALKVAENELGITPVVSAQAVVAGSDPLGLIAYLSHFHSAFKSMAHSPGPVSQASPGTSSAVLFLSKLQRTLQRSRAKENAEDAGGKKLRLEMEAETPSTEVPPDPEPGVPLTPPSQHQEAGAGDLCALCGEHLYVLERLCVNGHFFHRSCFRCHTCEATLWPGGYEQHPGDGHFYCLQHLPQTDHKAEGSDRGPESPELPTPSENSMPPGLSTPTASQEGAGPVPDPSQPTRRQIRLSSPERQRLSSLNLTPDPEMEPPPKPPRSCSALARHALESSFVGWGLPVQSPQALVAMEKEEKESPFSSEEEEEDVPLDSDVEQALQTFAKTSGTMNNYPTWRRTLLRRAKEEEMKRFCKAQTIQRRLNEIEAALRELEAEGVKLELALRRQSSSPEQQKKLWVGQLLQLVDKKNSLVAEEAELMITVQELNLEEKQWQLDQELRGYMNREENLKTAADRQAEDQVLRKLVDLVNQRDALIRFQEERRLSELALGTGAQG
UniProt Q96BX8: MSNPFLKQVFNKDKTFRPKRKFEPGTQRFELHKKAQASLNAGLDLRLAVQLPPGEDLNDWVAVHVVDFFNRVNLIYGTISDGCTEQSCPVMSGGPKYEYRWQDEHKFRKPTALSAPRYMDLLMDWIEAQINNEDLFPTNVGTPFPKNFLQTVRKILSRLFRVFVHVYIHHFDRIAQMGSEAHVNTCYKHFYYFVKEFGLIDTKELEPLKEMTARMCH
UniProt Q9H3L0: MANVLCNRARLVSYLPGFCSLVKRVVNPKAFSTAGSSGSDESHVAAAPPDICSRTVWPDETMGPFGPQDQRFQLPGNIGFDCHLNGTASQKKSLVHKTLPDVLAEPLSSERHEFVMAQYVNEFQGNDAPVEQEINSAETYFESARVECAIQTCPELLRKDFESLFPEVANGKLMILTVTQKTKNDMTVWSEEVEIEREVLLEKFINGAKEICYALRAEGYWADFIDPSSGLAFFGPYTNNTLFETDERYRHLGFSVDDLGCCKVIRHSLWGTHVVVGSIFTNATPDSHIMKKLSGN
UniProt Q9HAP2: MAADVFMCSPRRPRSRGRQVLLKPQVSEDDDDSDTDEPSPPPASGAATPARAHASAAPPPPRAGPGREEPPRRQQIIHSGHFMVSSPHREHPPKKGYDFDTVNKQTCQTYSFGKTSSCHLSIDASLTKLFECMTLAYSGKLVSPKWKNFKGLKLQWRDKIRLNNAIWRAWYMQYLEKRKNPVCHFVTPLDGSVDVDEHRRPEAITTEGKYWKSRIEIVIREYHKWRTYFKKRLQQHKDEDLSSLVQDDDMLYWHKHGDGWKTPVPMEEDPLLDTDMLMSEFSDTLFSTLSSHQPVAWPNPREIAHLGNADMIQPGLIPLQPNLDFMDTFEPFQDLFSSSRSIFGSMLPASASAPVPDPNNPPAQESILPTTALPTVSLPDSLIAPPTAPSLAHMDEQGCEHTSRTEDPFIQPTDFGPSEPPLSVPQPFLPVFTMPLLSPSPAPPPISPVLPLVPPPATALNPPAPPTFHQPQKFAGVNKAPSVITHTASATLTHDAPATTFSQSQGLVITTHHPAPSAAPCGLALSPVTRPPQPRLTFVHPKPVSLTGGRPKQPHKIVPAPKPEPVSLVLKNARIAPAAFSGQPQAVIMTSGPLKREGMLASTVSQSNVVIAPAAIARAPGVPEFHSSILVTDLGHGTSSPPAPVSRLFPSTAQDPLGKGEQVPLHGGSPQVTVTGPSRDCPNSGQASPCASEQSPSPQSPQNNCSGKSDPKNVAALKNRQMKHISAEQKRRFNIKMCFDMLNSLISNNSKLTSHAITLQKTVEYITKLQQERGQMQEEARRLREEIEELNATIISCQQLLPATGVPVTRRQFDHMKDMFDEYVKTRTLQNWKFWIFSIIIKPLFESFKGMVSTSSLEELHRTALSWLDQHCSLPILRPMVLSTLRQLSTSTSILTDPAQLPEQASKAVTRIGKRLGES
UniProt Q96T76: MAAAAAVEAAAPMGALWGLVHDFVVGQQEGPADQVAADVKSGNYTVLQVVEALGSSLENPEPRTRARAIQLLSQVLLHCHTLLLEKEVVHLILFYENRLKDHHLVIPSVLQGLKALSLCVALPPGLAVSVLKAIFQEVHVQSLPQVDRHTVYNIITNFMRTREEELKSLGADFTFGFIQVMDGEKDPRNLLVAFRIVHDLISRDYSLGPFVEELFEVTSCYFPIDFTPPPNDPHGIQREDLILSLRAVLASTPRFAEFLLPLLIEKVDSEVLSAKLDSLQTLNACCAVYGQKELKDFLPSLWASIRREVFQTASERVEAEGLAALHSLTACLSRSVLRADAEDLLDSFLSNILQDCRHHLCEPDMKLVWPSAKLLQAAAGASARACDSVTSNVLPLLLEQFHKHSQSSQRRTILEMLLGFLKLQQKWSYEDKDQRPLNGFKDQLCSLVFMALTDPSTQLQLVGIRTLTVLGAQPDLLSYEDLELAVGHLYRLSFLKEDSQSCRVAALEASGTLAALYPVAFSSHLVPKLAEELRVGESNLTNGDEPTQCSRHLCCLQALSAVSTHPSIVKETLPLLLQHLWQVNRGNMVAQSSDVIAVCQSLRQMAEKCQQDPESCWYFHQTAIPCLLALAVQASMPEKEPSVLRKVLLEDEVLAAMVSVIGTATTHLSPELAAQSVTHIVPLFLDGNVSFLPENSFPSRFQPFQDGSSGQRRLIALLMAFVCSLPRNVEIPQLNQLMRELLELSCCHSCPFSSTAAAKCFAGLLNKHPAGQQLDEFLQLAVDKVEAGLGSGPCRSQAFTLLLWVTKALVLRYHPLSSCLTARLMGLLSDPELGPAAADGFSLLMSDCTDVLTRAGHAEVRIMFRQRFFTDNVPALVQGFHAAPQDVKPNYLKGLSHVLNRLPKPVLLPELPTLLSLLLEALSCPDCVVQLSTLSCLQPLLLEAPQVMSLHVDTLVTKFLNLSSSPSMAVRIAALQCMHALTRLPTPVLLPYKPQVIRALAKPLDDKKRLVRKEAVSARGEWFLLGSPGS
UniProt Q7L1V2: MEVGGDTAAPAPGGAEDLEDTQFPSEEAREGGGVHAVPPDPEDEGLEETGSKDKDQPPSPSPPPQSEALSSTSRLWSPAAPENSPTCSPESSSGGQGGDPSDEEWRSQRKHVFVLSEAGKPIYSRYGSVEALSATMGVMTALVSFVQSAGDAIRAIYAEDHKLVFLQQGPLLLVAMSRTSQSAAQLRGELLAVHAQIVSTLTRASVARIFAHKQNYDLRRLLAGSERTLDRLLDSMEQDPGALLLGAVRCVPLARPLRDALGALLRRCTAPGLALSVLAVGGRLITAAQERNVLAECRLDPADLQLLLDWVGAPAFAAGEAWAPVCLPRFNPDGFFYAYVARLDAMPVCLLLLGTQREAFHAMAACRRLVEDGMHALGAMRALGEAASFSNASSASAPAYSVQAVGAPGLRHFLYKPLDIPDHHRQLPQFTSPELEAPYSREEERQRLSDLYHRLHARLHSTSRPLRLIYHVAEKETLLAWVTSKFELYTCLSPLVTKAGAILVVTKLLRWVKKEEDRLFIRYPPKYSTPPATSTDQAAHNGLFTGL

Experiments:
Test in all cases: log2 fold change, soluble protein after heating vs DMSO (PISA); higher = thermal stabilisation; K562 lysate, 10 uM; active = over 0.2 and 3.5 SD of the protein, either way, in both replicates (recomputed)
[1] = compound: C1=CC=C(C=C1)[C@H](COC2=CC3=C(C=C2)NC(=O)N3)NC(=O)C4=CC=CN(C4=O)CC5=CC(=C(C=C5)F)F
Procedure, shortened: (§1)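 The values are log-two fold changes in thermal stability compared with solvent controls and come from duplicates. They were obtained by TMTpro 16plex LC-MS/MS, with channel sums equalised, on the supernatant after 21,000xg for 90 min. That supernatant came from crude K562 extract at 1 mg/mL protein treated with 10 μM compound for 30 min, heated for 3 min across 48°C-58°C, pooled and brought to 0.5% NP-40 at 4°C.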

[2] = compound: CC1=C(SC2=C1C(=N[C@H](C3=NN=C(N32)C)CC(=O)N)C4=CC=C(C=C4)Cl)C
Procedure, shortened: as §1

[3] = compound: CC1=C2C(=CC=C1)N=C(N(C2=O)C3=CC=CC=C3C)CN4C=NC5=C(N=CN=C54)N
Procedure, shortened: as §1

[4] = compound: Cc1sc2c(c1C)C(c1ccc(Cl)cc1)=N[C@@H](CC(=O)OC(C)(C)C)c1nnc(C)n1-2
Procedure, shortened: as §1

[5] = compound: c1ccc([C@@H]2C[C@H]2NC2CCNCC2)cc1
Procedure, shortened: as §1

Measured: log2 fold change

MMAB (UniProt Q96EY8)
inactive: [1] 0.009 | [2] 0.031 | [3] -0.026 | [4] -0.023 | [5] -0.03

MGME1 (UniProt Q9BQP7)
inactive: [1] 0.029 | [2] 0.009 | [3] -0.018 | [4] -0.01 | [5] 0.005

MGRN1 isoform 2 (UniProt O60291)
inactive: [1] 0.114 | [2] -0.084 | [3] -0.081 | [4] 0.073 | [5] 0.052

MORC3 (UniProt Q14149)
inactive: [1] 0.013 | [2] 0 | [3] 0.003 | [4] 0.013 | [5] 0.012

MINDY1 isoform 3 (UniProt Q8N5J2)
inactive: [1] 0.017 | [2] 0.061 | [3] -0.003 | [4] 0.028

MRPL16 (UniProt Q9NX20)
inactive: [1] -0.068 | [2] -0.109 | [3] 0.008 | [4] 0.079

MOCS1 isoform 8 (UniProt Q9NZB8)
inactive: [1] -0.061 | [2] -0.044 | [3] 0.058 | [4] -0.017 | [5] 0.067

MICB, A0A140T979
inactive: [1] 0.028 | [2] -0.012 | [3] -0.003 | [4] 0.026 | [5] 0.019

MIS18A (UniProt Q9NYP9)
inactive: [1] 0.021 | [2] -0.054 | [3] -0.017 | [4] 0.023 | [5] 0.047

MPG (UniProt P29372)
inactive: [1] -0.039 | [2] -0.001 | [3] 0.047 | [4] -0.059 | [5] -0.017

MRFAP1 (UniProt Q9Y605)
inactive: [1] -0.02 | [2] -0.019 | [3] 0.03 | [4] -0.029 | [5] 0.014

MRPL1 (UniProt Q9BYD6)
inactive: [1] 0.038 | [2] -0.004 | [3] 0.011 | [4] -0.033 | [5] 0.086

MICU2 (UniProt Q8IYU8)
inactive: [1] -0.132 | [2] -0.069 | [3] 0.049 | [4] -0.072 | [5] -0.002

MKRN1 (UniProt Q9UHC7)
inactive: [1] 0.049 | [2] -0.004 | [3] 0.01 | [4] 0.037 | [5] -0.017

MKI67 (UniProt P46013)
inactive: [1] 0.08 | [2] 0.016 | [3] -0.028 | [4] 0.003 | [5] 0.013

MIEF1 (UniProt Q9NQG6)
inactive: [1] -0.062 | [2] -0.054 | [3] 0.003 | [4] -0.09 | [5] 0.101

MINK1 (UniProt Q8N4C8)
inactive: [1] 0.069 | [2] 0.092 | [3] -0.149 | [4] -0.066 | [5] 0.086

MIER3 isoform 2 (UniProt Q7Z3K6)
inactive: [1] 0.211 | [2] 0.295 | [3] 0.019 | [4] 0.034 | [5] 0.06

MPV17 (UniProt P39210)
inactive: [1] -0.11 | [2] -0.083 | [3] 0.036 | [4] -0.015 | [5] 0.02

Reprinted at random: 3 records from the list, in no set order.
MIEF1 (UniProt Q9NQG6)
inactive: [1] -0.062 | [2] -0.054 | [3] 0.003 | [4] -0.09 | [5] 0.101

MKI67 (UniProt P46013)
inactive: [1] 0.08 | [2] 0.016 | [3] -0.028 | [4] 0.003 | [5] 0.013

MKRN1 (UniProt Q9UHC7)
inactive: [1] 0.049 | [2] -0.004 | [3] 0.01 | [4] 0.037 | [5] -0.017

(next part)

MOB1B isoform 2 (UniProt Q7L9L4)
inactive: [1] 0.028 | [2] -0.036 | [3] 0.005 | [4] -0.042 | [5] -0.057

MIIP (UniProt Q5JXC2)
inactive: [1] -0.022 | [2] -0.012

MON2 isoform 5 (UniProt Q7Z3U7)
inactive: [1] -0.014 | [2] 0.006 | [3] 0.005 | [4] 0.009 | [5] -0.013

MKNK1 (UniProt Q9BUB5)
inactive: [1] -0.038 | [2] 0.019 | [3] -0.042 | [4] 0 | [5] -0.025

MLLT11 (UniProt Q13015)
inactive: [1] 0.007 | [2] -0.048 | [3] 0.109 | [4] -0.037 | [5] 0.003

MR1 (UniProt Q95460)
inactive: [1] -0.035 | [2] 0.039 | [3] -0.081 | [4] 0.158

MRGBP (UniProt Q9NV56)
inactive: [1] 0.001 | [2] -0.086 | [3] -0.076 | [4] -0.022 | [5] -0.115

MRAS (UniProt O14807)
inactive: [1] -0.083 | [2] 0.074 | [3] 0.104 | [4] -0.126 | [5] -0.113

MOSPD2 (UniProt Q8NHP6)
inactive: [1] -0.024 | [2] 0.029 | [3] 0.047 | [4] -0.078 | [5] -0.013

MRM1 (UniProt Q6IN84)
inactive: [1] -0.025 | [2] 0.003 | [3] 0.077 | [4] -0.032 | [5] 0.031

MLEC (UniProt Q14165)
inactive: [1] 0.048 | [2] 0.005 | [3] 0.004 | [4] -0.018 | [5] 0.012

MRPL14 (UniProt Q6P1L8)
inactive: [1] -0.036 | [2] -0.112 | [3] 0.068 | [4] 0.068 | [5] 0.043

MRPL20 (UniProt Q9BYC9)
inactive: [1] -0.008 | [2] -0.004 | [3] 0.059 | [4] 0.026 | [5] 0.078

MOGS (UniProt Q13724)
inactive: [1] -0.018 | [2] 0.023 | [3] 0.001 | [4] 0.027 | [5] 0.021

MON1A (UniProt Q86VX9)
inactive: [1] -0.007 | [2] 0.018 | [3] -0.063 | [4] 0.049 | [5] -0.014

MIEN1 (UniProt Q9BRT3)
inactive: [1] -0.002 | [2] -0.025 | [3] 0.006 | [4] -0.007 | [5] 0.006

MRPL13 (UniProt Q9BYD1)
inactive: [1] 0.058 | [2] 0.13 | [3] -0.031 | [4] 0.019 | [5] 0.031

MIB1 (UniProt Q86YT6)
inactive: [1] -0.007 | [2] -0.001 | [3] 0.082 | [4] -0.073 | [5] 0.05

MICAL1 isoform 4 (UniProt Q8TDZ2)
inactive: [1] -0.045 | [2] -0.007 | [3] 0.007 | [4] -0.035 | [5] -0.02

MID1IP1 (UniProt Q9NPA3)
inactive: [1] 0.15 | [2] -0.153 | [3] 0.027 | [4] 0.072 | [5] 0.073

MIF4GD isoform 3 (UniProt A9UHW6)
inactive: [1] -0.046 | [2] -0.033 | [3] 0.005 | [4] -0.051 | [5] -0.029

MOB3A (UniProt Q96BX8)
inactive: [1] -0.013 | [2] 0.019 | [3] -0.035 | [4] 0.025 | [5] 0.031

MIPEP (UniProt Q99797)
inactive: [1] 0.015 | [2] -0.019 | [3] 0.052 | [4] 0.028 | [5] -0.008

MGAT2 (UniProt Q10469)
inactive: [1] -0.056 | [2] -0.052 | [3] -0.035 | [4] 0.042 | [5] -0.007

MMTAG2 (UniProt Q9BU76)
inactive: [1] -0.002 | [2] -0.017 | [3] 0.046 | [4] 0.005 | [5] 0.087

MOCOS (UniProt Q96EN8)
inactive: [1] 0.027 | [2] 0.02 | [3] 0.046 | [4] 0.011 | [5] -0.005

MIER2 (UniProt Q8N344)
inactive: [1] 0.156 | [2] -0.288 | [3] 0.077 | [4] -0.021 | [5] 0.056

MOCS3 (UniProt O95396)
inactive: [1] -0.056 | [2] -0.019 | [3] 0.278 | [4] 0.025 | [5] -0.176

MMADHC (UniProt Q9H3L0)
inactive: [1] 0.039 | [2] -0.034 | [3] 0.025 | [4] -0.08 | [5] -0.004

MLXIP (UniProt Q9HAP2)
inactive: [1] -0.063 | [2] 0.005 | [3] 0.018 | [4] 0.031 | [5] -0.025

MICAL2 (UniProt O94851)
inactive: [1] 0.126 | [2] 0.114 | [3] 0.016 | [4] 0.344 | [5] 0.031

MOV10 (UniProt Q9HCE1)
inactive: [1] 0.028 | [2] 0.01 | [3] 0.021 | [4] 0.029 | [5] 0.02

MKLN1 (UniProt Q9UL63)
inactive: [1] 0.011 | [2] 0.039 | [3] 0.005 | [4] 0.031 | [5] -0.04

MMS19 isoform 8 (UniProt Q96T76)
inactive: [1] -0.024 | [2] 0.001 | [3] 0.032 | [4] -0.005 | [5] 0.018

MON1B (UniProt Q7L1V2)
inactive: [1] -0.009 | [2] 0.016 | [3] 0.012 | [4] -0.017 | [5] 0.001
